# In article PMC10364317, “Regulation of indole‐3‐acetic acid biosynthesis and consequences of auxin production deficiency in Serratia plymuthica” (Microbial Biotechnology, 2023):
# Target: T1, TyrR (TyrRA153) (Serratia plymuthica A153) (UniProt A0A318P557)
# T1 sequence (looked up, limits assumed): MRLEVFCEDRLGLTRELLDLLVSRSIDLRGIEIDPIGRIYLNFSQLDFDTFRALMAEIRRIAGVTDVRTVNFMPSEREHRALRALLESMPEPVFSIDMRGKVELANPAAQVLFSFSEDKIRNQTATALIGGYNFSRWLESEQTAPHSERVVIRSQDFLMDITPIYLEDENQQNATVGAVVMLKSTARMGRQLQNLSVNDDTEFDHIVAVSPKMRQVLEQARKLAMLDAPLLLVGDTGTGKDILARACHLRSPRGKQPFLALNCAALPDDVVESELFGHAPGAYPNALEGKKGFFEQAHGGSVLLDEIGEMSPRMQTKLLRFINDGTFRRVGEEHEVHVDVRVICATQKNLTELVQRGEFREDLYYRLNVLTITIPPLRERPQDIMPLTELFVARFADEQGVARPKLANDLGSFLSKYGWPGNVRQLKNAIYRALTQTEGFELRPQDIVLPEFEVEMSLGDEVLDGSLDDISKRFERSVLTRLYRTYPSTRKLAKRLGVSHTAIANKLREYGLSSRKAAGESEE
# Assay: ITC
# Conditions: L-Trp (e.g. 1 mM), 10 mM MgCl2; ITC: 5 mM Tris, 5 mM PIPES, 5 mM MES, 150 mM NaCl, 10 mM MgCl2, 10 mM beta-mercaptoethanol, 10% glycerol, pH 7.5, 10 C; 100 uM DNA injected into 5-20 uM TyrR; recombinant protein; protein details: N-terminal His6
sequence,measurement,value
CCCCTGTAAAGGAGCCATTACATCAA (double strand) [Pipdc-wt-ITC (wild-type TyrR box)],Kd,442 nM

# For at least one entry, the source does not settle the construct or the ends of the probe. Protein sequences can lack the tags named with them.
